These are yes or no findings as the source states them, for the method shown. In cells and extracts the contact can be indirect. Some results given as binding are weak or reduced against the parent protein; the word gives no strength.
Assays:
[1] = target: Fancd2-Flag (Fanconi anemia complementation group D2) (UniProt Q80V62); assay: co-IP; NE4C cells co-transfected with Fancd2-Flag and Brca1-Myc for 48 h, treated with 0.1 uM MMC or 0.1 uM MMC + 0.5 mM Hcy for 24 h; lysis in 0.1% NP40 buffer, Flag-beads 2 h at 4 °C, blot with anti-Myc
[2] = target: Fancd2-Flag (Fanconi anemia complementation group D2) (UniProt Q80V62); assay: condition: only control cells (saline) without MMC-induced DNA damage; co-IP; NE4C cells co-transfected with Fancd2-Flag and Brca1-Myc for 48 h, control group (saline, no MMC, no DNA damage); lysis in 0.1% NP40 buffer, Flag-beads 2 h at 4 °C, blot with anti-Myc

Protein sequences, listed by entry. Tags and fused reporters are not part of them.
UniProt Q80V62: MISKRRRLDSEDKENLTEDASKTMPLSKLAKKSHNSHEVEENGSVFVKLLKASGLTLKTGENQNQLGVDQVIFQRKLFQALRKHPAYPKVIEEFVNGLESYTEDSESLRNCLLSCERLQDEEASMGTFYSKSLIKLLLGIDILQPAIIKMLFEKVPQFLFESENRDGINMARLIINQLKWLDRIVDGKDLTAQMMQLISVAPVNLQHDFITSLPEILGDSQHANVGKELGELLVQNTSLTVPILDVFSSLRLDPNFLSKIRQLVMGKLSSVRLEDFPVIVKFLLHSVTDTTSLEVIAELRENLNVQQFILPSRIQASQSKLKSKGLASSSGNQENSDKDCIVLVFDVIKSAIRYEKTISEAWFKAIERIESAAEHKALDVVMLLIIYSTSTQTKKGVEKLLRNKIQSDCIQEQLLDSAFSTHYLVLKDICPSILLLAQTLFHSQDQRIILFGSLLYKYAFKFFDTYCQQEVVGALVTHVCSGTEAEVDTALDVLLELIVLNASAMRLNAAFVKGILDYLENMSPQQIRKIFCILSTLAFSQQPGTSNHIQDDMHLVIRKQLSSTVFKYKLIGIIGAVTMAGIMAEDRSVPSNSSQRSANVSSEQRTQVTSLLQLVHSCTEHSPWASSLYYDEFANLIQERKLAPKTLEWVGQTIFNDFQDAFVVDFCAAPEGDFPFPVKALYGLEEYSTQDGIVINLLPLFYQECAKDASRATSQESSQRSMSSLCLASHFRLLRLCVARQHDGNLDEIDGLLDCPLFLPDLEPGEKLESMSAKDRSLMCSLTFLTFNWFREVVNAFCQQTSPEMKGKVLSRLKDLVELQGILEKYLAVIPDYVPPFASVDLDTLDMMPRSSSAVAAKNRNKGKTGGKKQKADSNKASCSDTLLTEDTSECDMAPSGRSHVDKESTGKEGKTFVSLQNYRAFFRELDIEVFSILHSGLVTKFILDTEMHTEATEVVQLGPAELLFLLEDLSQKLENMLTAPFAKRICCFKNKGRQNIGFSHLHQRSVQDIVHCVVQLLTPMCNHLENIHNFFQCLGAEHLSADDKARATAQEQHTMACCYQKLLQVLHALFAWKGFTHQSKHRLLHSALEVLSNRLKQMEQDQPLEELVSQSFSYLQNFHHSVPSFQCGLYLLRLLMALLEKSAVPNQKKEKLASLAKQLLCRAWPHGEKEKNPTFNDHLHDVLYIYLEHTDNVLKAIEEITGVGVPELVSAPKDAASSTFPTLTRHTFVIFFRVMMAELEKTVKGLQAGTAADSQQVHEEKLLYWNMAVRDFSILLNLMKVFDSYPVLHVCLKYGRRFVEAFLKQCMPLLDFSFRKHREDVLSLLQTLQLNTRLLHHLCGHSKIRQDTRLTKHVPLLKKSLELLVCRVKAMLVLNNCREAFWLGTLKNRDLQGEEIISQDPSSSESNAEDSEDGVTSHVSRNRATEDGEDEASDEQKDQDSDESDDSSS
UniProt P48754: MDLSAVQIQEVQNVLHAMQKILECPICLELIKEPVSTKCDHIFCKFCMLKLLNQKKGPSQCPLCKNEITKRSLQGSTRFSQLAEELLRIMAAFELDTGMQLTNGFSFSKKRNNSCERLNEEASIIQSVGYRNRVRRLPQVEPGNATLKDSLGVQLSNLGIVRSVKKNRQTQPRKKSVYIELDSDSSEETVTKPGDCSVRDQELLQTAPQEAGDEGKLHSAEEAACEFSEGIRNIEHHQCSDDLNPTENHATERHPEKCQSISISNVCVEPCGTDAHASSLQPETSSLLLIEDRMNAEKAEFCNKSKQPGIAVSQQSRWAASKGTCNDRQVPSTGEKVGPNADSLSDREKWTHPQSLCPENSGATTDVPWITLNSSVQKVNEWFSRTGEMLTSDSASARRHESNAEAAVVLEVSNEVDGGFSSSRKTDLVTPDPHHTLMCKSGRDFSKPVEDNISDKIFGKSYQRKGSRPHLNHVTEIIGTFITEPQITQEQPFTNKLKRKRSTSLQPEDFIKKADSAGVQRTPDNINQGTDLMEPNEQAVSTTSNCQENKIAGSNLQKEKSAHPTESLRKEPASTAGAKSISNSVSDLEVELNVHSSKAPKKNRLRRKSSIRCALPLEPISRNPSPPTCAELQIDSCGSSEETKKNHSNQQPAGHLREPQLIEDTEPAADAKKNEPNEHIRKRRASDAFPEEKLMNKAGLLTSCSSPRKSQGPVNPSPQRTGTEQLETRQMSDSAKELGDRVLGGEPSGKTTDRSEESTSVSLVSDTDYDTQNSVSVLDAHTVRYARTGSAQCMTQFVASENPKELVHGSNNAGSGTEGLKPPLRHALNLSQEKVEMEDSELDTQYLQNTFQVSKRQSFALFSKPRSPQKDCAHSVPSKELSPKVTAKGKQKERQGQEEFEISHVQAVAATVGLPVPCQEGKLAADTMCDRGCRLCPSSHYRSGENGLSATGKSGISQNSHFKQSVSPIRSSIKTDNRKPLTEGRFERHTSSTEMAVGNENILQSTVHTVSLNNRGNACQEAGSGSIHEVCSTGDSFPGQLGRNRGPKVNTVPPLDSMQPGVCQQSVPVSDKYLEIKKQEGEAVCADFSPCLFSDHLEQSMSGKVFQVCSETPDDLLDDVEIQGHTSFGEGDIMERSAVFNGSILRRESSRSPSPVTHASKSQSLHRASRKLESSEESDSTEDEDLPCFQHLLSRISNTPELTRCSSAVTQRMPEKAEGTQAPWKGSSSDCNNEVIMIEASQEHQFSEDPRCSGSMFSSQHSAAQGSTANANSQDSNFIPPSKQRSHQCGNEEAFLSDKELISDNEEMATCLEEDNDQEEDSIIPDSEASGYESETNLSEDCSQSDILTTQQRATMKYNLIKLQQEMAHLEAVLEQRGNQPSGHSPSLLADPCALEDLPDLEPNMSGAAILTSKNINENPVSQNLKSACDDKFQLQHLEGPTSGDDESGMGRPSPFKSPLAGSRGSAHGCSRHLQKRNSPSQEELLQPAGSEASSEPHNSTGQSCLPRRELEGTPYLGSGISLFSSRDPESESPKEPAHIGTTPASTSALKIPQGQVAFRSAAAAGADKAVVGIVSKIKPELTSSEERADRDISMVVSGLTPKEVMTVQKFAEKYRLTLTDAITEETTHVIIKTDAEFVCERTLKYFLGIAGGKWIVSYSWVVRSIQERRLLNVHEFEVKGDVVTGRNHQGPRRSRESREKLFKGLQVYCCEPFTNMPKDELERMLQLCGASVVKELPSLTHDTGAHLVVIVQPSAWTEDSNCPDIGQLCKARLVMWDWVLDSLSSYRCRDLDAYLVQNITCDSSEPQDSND

For “Brca1-Myc (Breast Cancer 1) (from UniProt P48754 1-1812)”, the binding [1] was “binds” and the binding [2] was “no binding”.

Source: article PMC7532487
